The source of these data is paper PMC6522504.

Amino acid sequences for entries named in this document (tags omitted). A change or cut given only in a name is not applied to a line headed by its entry.
UniProt Q7JW27: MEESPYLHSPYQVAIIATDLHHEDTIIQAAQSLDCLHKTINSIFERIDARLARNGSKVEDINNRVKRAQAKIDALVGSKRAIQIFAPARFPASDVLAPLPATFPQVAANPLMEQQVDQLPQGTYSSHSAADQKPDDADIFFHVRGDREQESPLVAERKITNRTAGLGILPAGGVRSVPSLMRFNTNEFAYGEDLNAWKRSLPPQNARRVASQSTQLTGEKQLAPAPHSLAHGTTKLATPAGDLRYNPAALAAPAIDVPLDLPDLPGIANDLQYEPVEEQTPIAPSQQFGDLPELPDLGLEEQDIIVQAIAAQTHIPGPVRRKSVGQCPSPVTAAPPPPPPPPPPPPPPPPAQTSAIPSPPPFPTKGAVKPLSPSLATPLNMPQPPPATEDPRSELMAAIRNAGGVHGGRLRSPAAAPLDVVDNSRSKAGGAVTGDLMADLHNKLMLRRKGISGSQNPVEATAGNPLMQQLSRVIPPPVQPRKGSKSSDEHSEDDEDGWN

Results are given in words; binding and its absence hold for the method and conditions named. In cells and extracts the contact can be indirect. Some results given as binding are weak or reduced against the parent protein; the word gives no strength.

The target of assay [1] is T1, CCDC53 (Drosophila (endogenous in S2 cells)) (UniProt Q9VLT8).
T1 sequence: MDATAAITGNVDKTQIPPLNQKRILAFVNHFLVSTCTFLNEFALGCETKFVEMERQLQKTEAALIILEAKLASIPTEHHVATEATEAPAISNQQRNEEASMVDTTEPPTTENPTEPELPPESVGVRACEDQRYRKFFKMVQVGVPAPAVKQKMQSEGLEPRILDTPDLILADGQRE
As to the kind of experiment: co-IP; lysates of transfected S2 cells; IP with anti-CCDC53 antibody; 40 min at room temperature; immunoblot for the HA-tagged Wash variants.

Assay [2] concerns the target HA-Wash^Y273D (Drosophila) (UniProt Q7JW27). As to the kind of experiment: co-IP; lysates of transfected S2 cells; IP of the HA-tagged Wash variant with anti-HA; 40 min at room temperature; immunoblot for strumpellin and CCDC53. (A western blot detects proteins with antibodies after separation by electrophoresis.)
For assay [3], the target named is HA-tagged Wash (Drosophila) (UniProt Q7JW27). Described as above.
The target in assay [4] is WASH (Wiskott–Aldrich syndrome protein and SCAR homologue) (Drosophila (endogenous in embryos)) (UniProt Q7JW27). As to the kind of experiment: co-IP; lysates of 12-20 h AEL Drosophila embryos (wild type; for the WASH IP also 69B>Btk29A^WT and 69B>Btk29A^KD); anti-Btk29A or anti-WASH antibody or IgG control for 4 h, Protein G sepharose 1 h at 4 °C; washes with 200 mM NaCl; immunoblot.

With “HA-tagged Wash (from UniProt Q7JW27 1-499)”, the binding entry in assay [1] was “binds”.

“HA-Wash^Y273D (from UniProt Q7JW27 1-499)”: in assay [1], the binding result is given as “binds”.

B1: strumpellin (protein, UniProt Q9VUY8 1-1191)
chain: MSFLDDNNACGQNLLNIVSVGNSIIAEILRLKDYVPSIYRLDNKADKAKYGELILDFSYFKIAEDHERRIEQSPELTELDDEARAQLPLITRFYLAFQSIHHYASDLQQYIEELNTGYYIQQTLETVLQEEEGRQLLCESLYLFGVILLMVDFHIPGDVRERLLIAYYRYSGGDATPSGDESNIHDVCLLLRSTGYVHPSIAAKVLGLGGKQAGARAASLVVPRYPEAYFSRFRFDENFVDLVVARLRCDDIYNQLNLYPHPAHRSTALSTQAAMLYVCLYFCPQVLHSQGSQMREIVDKFFCDNWTISVYMGMTVNLVDAWLDFKAARSAIENVISPPAIKALCQQQKEQLGKITQKTQEIVREGVLNDNFVLEHANKIIHLMRQSNVLLRWFCLHTSREVFIFAHTATLTGQVQKCVLHELQFNRNTLYNLLLNCSQMELSVREFLAEIQQTKEERWTKSREEAMQRLNELSEAFAGSRPLSKIEQNPQLQQWFGEVAGRLQKLELSRPQKSGRLIIQVMQALDDVQEYHNLHSNMLVKQQLQETRDMLNQMAQLINLKEDIEIHIQMITDFSYAWHLLQFDFTPPMQEHIKRQPQAVIGIRAVFLKLASTLEVPLMRINQARSEDLVSVSNYYSTELANFLRRVLQIVPETMFSILAKIIYLLTNVIKEFPTKVEKERLKDYAQFEERAKVAQLTNSIAVFTKGILMMKTTLVGVIELDPKQLLEDGIRKELVNHLANAYNLGLIFTPEKGKTPVQLLQQKLQALAKTIEGYRRSFEYIEDYLRVQGLRILLEESQRIINYNVEKECNAFLRNKVQEFQSEHQSQIIPIPNFPPLLGDPSNNFIGRLAHEILRCTDPKQTIFLDLKSTWYEKKAPHQEVLAGSGFFEILREALAPAGMVGLERLYAHMLADELKRNLERLQRNLTSDRMWVDTLAALTRELEARDFPTPEVSKQPLKYYQAYTQRWLKVWPTLLDWVLCIGQKQLLRREIAGELSFSSKCDAKLLENTADTLNKALLLELSLSKDLCDEKGVVMLTELQETLLYTGNFEPLEQVFLITKNTHNMALFMFLFTIAHLGRMQHSTITDCLLPKSAKDNIDNVPFIVGLVTILQQFHKNVKMLYISYMSQYVVTVSEAQLLDKEILGPEVVTALHFLLAFIRIARLPLGVLEQRIPNIILSEYEYLSTLLK
For B1, the binding result in assay [2] and in assay [3] was “binds” each time.

B2: Btk29A (enzyme, UniProt P08630 1-786)
chain: MMGTKHRNSHVNGSIKSSSSLRSSSKSFQAKMDLMSERLYDVVKSGSMVKRAQNKKRFTPVNYKHRWFELTKRTFSYFDVENVERRRERGRIHLKGVRLVEEATVSGEGGDPFAPDGYPFQVGYCEISASANSHQLENGNGGGSGVGIEGQQSGRAVPQYTLYVIANSEKERSEWIRAIRQVCEDSNTPKSYRYHPGLWSGKKWSCCKGLSRTTFGCRAAAHWREANNNPSNGSSPAQNSTRSISPNSSTTNSQFSLQHNSSGSLGGGVGGGLGGGGSLGLGGGGGGGGSCTPTSLQPQSSLTTFKQSPTLLNGNGTLLDANMPGGIPTPGTPNSKAKDNSHFVKLVVALYPFKAIEGGDLSLEKNAEYEVIDDSQEHWWKVKDALGNVGYIPSNYVKPKALLGLERYEWYVGDMSRQRAESLLKQGDKEGCFVVRKSSTKGLYTLSLHTKVPQSHVKHYHIKQNARCEYYLSEKHCCETIPDLINYHRHNSGGLACRLKSSPCDRPVPPTAGLSHDKWEIHPMELMLMEELGSGQFGVVRRGKWRGSIDTAVKMMKEGTMSEDDFIEEAKVMTKLQHPNLVQLYGVCSKHRPIYIVTEYMKHGSLLNYLRRHEKTLIGNMGLLLDMCIQVSKGMTYLERHNYIHRDLAARNCLVGSENVVKVADFGLARYVLDDQYTSSGGTKFPIKWAPPEVLNYTRFSSKSDVWAYGVLMWEIFTCGKMPYGRLKNTEVVERVQRGIILEKPKSCAKEIYDVMKLCWSHGPEERPAFRVLMDQLALVAQTLTD
In the case of B2, the binding result in assay [4] is recorded as “binds”.

B3: CCDC53 (protein, UniProt Q9VLT8 1-176)
chain: MDATAAITGNVDKTQIPPLNQKRILAFVNHFLVSTCTFLNEFALGCETKFVEMERQLQKTEAALIILEAKLASIPTEHHVATEATEAPAISNQQRNEEASMVDTTEPPTTENPTEPELPPESVGVRACEDQRYRKFFKMVQVGVPAPAVKQKMQSEGLEPRILDTPDLILADGQRE
As for B3, the binding result in assay [2] and in assay [3] was “binds” each time.
